Laboratory results: PubChem BioAssay AID743121 (NCATS, 2013)
This is an unselected part of about 26,000 deposited reagents. Over the whole deposit, 167 (0.63%) were called active. 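Calls are per gene from RSA p-values that are not deposited; an individual active-marked siRNA can sensitise only weakly.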 The numbers tell different reagents against one gene apart.

- Screen: 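Genes whose silencing strengthens cell killing by camptothecin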 (primary screen)
- Cells: MDA-MB-231 cells, a human breast cancer line
- Knock-down reagent: single siRNA against human genes, 20 nM siRNA (0.8 pmol per well)
- Timing: 120 h (drug added 48 h after transfection, read 72 h later)
- Conditions: camptothecin 20 nM (about EC30) for 72 h; vehicle 0.1% DMSO in parallel plates
- Read-out: 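Cell viability by ATP luminescence (CellTiter-Glo) as % of non-targeting siRNA wells, and the log2 ratio of viability without drug over viability with camptothecin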
- Scale: log2 vehicle/camptothecin viability: higher = stronger sensitisation to camptothecin; viability with camptothecin and viability without drug: higher = more viable cells
- Rule for the call: 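Active genes have an RSA gene-level p-value below 0.001, computed from the ratios of their separate siRNAs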

Target gene,reagent no.,log2 vehicle/camptothecin viability,viability with camptothecin (% of control),viability without drug (% of control),outcome
DEK (GeneID 7913),1,-0.336,84.3,66.8,inactive
DEK (GeneID 7913),2,-0.1,101,94.3,inactive
DEK (GeneID 7913),3,0.0372,69.5,71.3,inactive
DEK (GeneID 7913),4,0.186,68.9,78.3,inactive
ETS1 (GeneID 2113),1,0.222,55.5,64.8,inactive
ETS1 (GeneID 2113),2,-0.531,119,82.4,inactive
ETS1 (GeneID 2113),3,0.285,53.5,65.1,inactive
ETS1 (GeneID 2113),4,-0.222,101,86.2,inactive
ARRB2 (GeneID 409),1,-0.297,43.5,35.4,inactive
ARRB2 (GeneID 409),2,-0.125,80.2,73.6,inactive
ARRB2 (GeneID 409),3,0.514,62.7,89.5,inactive
ARRB2 (GeneID 409),4,0.0893,91.7,97.5,inactive
NDUFV2 (GeneID 4729),1,-0.0765,98.6,93.5,inactive
NDUFV2 (GeneID 4729),2,-0.304,91.7,74.3,inactive
NDUFV2 (GeneID 4729),3,0.965,7.04,13.8,inactive
NDUFV2 (GeneID 4729),4,-0.134,70.4,64.2,inactive
HADHA (GeneID 3030),1,0.132,97.7,107,inactive
HADHA (GeneID 3030),2,-0.0622,88.2,84.5,inactive
HADHA (GeneID 3030),3,-0.301,73.1,59.3,inactive
HADHA (GeneID 3030),4,0.0326,54.2,55.5,inactive
PTGIR (GeneID 5739),1,0.141,70,77.2,inactive
PTGIR (GeneID 5739),2,0.117,88.2,95.7,inactive
PTGIR (GeneID 5739),3,1.07,8.4,17.7,inactive
PTGIR (GeneID 5739),4,0.12,26.4,28.7,inactive

Records listed so far whose gene name begins with D or d:
Target gene,reagent no.,log2 vehicle/camptothecin viability,viability with camptothecin (% of control),viability without drug (% of control),outcome
DEK (GeneID 7913),1,-0.336,84.3,66.8,inactive
DEK (GeneID 7913),2,-0.1,101,94.3,inactive
DEK (GeneID 7913),3,0.0372,69.5,71.3,inactive
DEK (GeneID 7913),4,0.186,68.9,78.3,inactive

The listing continues.
Target gene,reagent no.,log2 vehicle/camptothecin viability,viability with camptothecin (% of control),viability without drug (% of control),outcome
TRIM50 (GeneID 135892),1,-0.038,94.2,91.8,inactive
TRIM50 (GeneID 135892),2,-0.663,39,24.7,inactive
TRIM50 (GeneID 135892),3,-0.682,16.7,10.4,inactive
TRIM34 (GeneID 53840),1,0.378,55.5,72.1,inactive
TRIM34 (GeneID 53840),2,-0.179,46.2,40.8,inactive
TRIM34 (GeneID 53840),3,0.00761,8.17,8.21,inactive
TRIM34 (GeneID 53840),4,-0.201,13.5,11.7,inactive
ENSA (GeneID 2029),1,-0.0311,60.1,58.8,inactive
ENSA (GeneID 2029),2,-0.186,80.8,71.1,inactive
ENSA (GeneID 2029),3,-0.393,49.5,37.7,inactive
ENSA (GeneID 2029),4,-0.374,71,54.8,inactive
TGFBI (GeneID 7045),1,-0.15,86.8,78.2,inactive
TGFBI (GeneID 7045),2,-0.221,81,69.5,inactive
TGFBI (GeneID 7045),3,-0.257,106,88.9,inactive
TGFBI (GeneID 7045),4,-0.573,46.6,31.3,inactive
PRPF8 (GeneID 10594),1,-0.533,23,15.9,inactive
PRPF8 (GeneID 10594),2,-0.512,27.4,19.2,inactive
PRPF8 (GeneID 10594),3,-0.748,25.2,15,inactive
PRPF8 (GeneID 10594),4,0.0868,6.36,6.75,inactive
UBQLN1 (GeneID 29979),1,-0.0574,107,103,inactive
UBQLN1 (GeneID 29979),2,-0.244,78,65.9,inactive
UBQLN1 (GeneID 29979),3,-0.145,54.3,49.1,inactive
UBQLN1 (GeneID 29979),4,-0.392,49.4,37.6,inactive
